Laboratory results published in the supplement of paper PMC5949888.
Most values lie at the floor of the assay. Slopes are relative: functional sequences can read slightly below zero.

Test system: Saccharomyces cerevisiae PS128 hsf1 delta, HSF1(1-493) fusion
Experiment: growth estimate (transactivation domain function in HSF1 fusion, heat-shock survival) (a.u. (slope of normalised read count over time)); higher = stronger growth at 37°C, i.e. more transactivation activity
Details: library: random library

| Substance | growth estimate |
| --- | --- |
| LTSLAVSRG | < -0.25 |
| RGV | < -0.25 |
| VFRDLFYRFVYIQG | < -0.25 |
| RSLSCARRTPQLAREVPFDL | -0.246 |
| IDASSKMQSLPHQLRYMA | < -0.25 |
| ERKRALRYYRIKGISCRVST | < -0.25 |
| GPGN | < -0.25 |
| YLHTGMQPPTSRGS | < -0.25 |
| SVRR | < -0.25 |
| QYSTFRIGSGGADNSIEHAL | < -0.25 |
| LGPWSMIGGQH | < -0.25 |
| AWESPG | < -0.25 |
| GWTETLRYKRMVILSPRRVW | < -0.25 |
| AVLE | < -0.25 |
| RNAECLVPSRWLA | < -0.25 |
| MFRFLKETWR | -0.243 |
| LCRCVVCCTFTRALSTSSQM | < -0.25 |
| LSVVQALVASS | < -0.25 |
| SWYVRTGASIIYTLDEVIFC | < -0.25 |
| KPYGNDWPTVRCS | < -0.25 |
| GGGLFDLAASWDELECCLSA | 0.0727 |

| Substance | growth estimate |
| --- | --- |
| GISVSLENRY | < -0.25 |
| TGGRRV | < -0.25 |
| EQGRRFVNDSEGLRLHKPSV | < -0.25 |
| EGSITHTVQLLRVQNWYRKR | < -0.25 |
| LRCRVSLP | < -0.25 |
| APCHLIFCRRTILP | < -0.25 |
| RHRIPIRSSFGCEVTDGSCG | < -0.25 |
| LESAVSVIAGSRVGLGTALS | < -0.25 |
| DWSAAIGCEFPPIQRSRGTS | -0.239 |
| LWSTNATRPHTLRLERSRLA | < -0.25 |
| AVHQSFEFIHGLTGYDMNLV | 0.194 |
| IAICFICLGCG | -0.246 |
| IPVYVYIAGWSRIRYDIPSG | < -0.25 |
| RRQAQRPGIGRLAHATRAGT | < -0.25 |
| SCNRKKWVVQY | < -0.25 |
| AFPKSRLSLIWDRARDLAM | < -0.25 |
| LFSFL | -0.212 |
| AHSNFPGFQLGRAWINA | < -0.25 |
| KKAHATNCPGRRSLTRRANA | -0.243 |
| ARCHRSCSPSATGEVL | < -0.25 |
| GIPSSSTDRTIRSI | < -0.25 |

Shown with tabs: entries from further up.
Substance	growth estimate
TGGRRV	< -0.25
EQGRRFVNDSEGLRLHKPSV	< -0.25
EGSITHTVQLLRVQNWYRKR	< -0.25
LRCRVSLP	< -0.25
APCHLIFCRRTILP	< -0.25
RHRIPIRSSFGCEVTDGSCG	< -0.25
LESAVSVIAGSRVGLGTALS	< -0.25
DWSAAIGCEFPPIQRSRGTS	-0.239
LWSTNATRPHTLRLERSRLA	< -0.25
AVHQSFEFIHGLTGYDMNLV	0.194
IAICFICLGCG	-0.246
IPVYVYIAGWSRIRYDIPSG	< -0.25
RRQAQRPGIGRLAHATRAGT	< -0.25
SCNRKKWVVQY	< -0.25
AFPKSRLSLIWDRARDLAM	< -0.25
LFSFL	-0.212
AHSNFPGFQLGRAWINA	< -0.25

Individual results from the list.
IAICFICLGCG – growth estimate: -0.246
RRQAQRPGIGRLAHATRAGT – growth estimate: < -0.25

Next part.

| Substance | growth estimate |
| --- | --- |
| IDS | < -0.25 |
| WGKSLPNDLIIHIRRASPII | < -0.25 |
| IGTAYGGPRLFDRLGQKRCL | < -0.25 |
| RVLWGPVLTRLYGLRRIKES | < -0.25 |
| RIVEGTPGLGVQFWKDRSSH | < -0.25 |
| TGGISIRGL | < -0.25 |
| TGQVRSLQAVQWI | < -0.25 |
| WHSRNELPWLLEADYL | < -0.25 |
| TLADHPTTQGY | < -0.25 |
| APFFLWASYPIMVEVTFKYS | < -0.25 |
| SRCVARARDES | < -0.25 |
| QRERSPSREGFTPGKIKP | < -0.25 |
| GKAASLVHKS | < -0.25 |
| GPTESAVVLGLKVFGLCQNH | < -0.25 |
| ASKNRQSD | < -0.25 |
| RIQVSPMDYLLPRRA | < -0.25 |
| NQENTRIHAGR | < -0.25 |
| GSDVDFLSYSMGVDGLGGCG | < -0.25 |
| RRKSIRYKTNGVLGQTLLAQ | < -0.25 |
| VSQNIPETTRRKQDS | < -0.25 |
| TPARAQSNITNFRSIGHQRK | < -0.25 |

| Substance | growth estimate |
| --- | --- |
| GSLRESDLSPTGSIRSRTSI | < -0.25 |
| VLLVRGLRSRHGRFLVCVTA | < -0.25 |
| WHTTWRAHDR | < -0.25 |
| QGDSLR | < -0.25 |
| GEPAR | < -0.25 |
| LDLLVCPSLTAFTKIPG | < -0.25 |
| EDWG | < -0.25 |
| RSS | < -0.25 |
| VGV | < -0.25 |
| EEVYGLMRIGLVGVRVFRAP | < -0.25 |
| PRTGLLFPRMSVSVGLTGWA | < -0.25 |
| APEAADSN | < -0.25 |
| GLDEMA | < -0.25 |
| RTQALSY | < -0.25 |
| SVAVLFFGSSVAWPLHISCR | < -0.25 |
| SIENGSGHNSYDRLIVPRRT | < -0.25 |
| GLGEQ | < -0.25 |
| WWREGQLPWCLECSPGQARR | < -0.25 |
| RHGDGRM | < -0.25 |
